According to patent US20230128907A1, “PARIS POLYPHYLLA SAPONIN EXTRACT WITH ACTIVITY AGAINST MULTIDRUG-RESISTANT BACTERIA AND PREPARATION AND USE THEREOF” (XI'AN KANGYUANSHENG BIOMEDICAL TECHNOLOGY CO., LTD., priority 2021, published 2023):
Some entries share one result that the patent states for a list of compounds. At least one structure is not confirmed: it was looked up by name or label, or the drawing left a doubt.

Tested on: the experimental strains
Test: MIC of purified polyphyllins, stated collectively in the text
Assay type: cell-based
Details: all experimental strains tested for the polyphyllin

| Structure (SMILES) | MIC values to the experimental strains |
| --- | --- |
| CC1CCC2(OC1)OC1CC3C4CC=C5CC(OC6OC(CO)C(OC7OC(C)C(OC8OC(C)C(O)C(O)C8O)C(O)C7O)C(O)C6OC6OC(C)C(O)C(O)C6O)CCC5(C)C4CCC3(C)C1(O)C2C (centres unmarked) [Polyphyllin VII] | greater than 128 μg/mL |
| CC1CCC2(OC1)OC1CC3C4CC=C5CC(OC6OC(CO)C(OC7OC(C)C(OC8OC(C)C(O)C(O)C8O)C(O)C7O)C(O)C6OC6OC(C)C(O)C(O)C6O)CCC5(C)C4CCC3(C)C1C2C (centres unmarked) [Polyphyllin II] | greater than 128 μg/mL |
